Bounds are passed on as bounds.

The nature of series [1]: general procedure: Fmoc solid-phase peptide synthesis; rink amide resin AM LL; 2-Chlorotrityl chloride resin; HBTU/DIPEA; PyBOP/DIPEA for cyclization.
Series [2] in a line: general procedure: Fmoc solid-phase peptide synthesis; rink amide resin AM LL; HBTU/DIPEA; PyBOP/DIPEA for cyclization. The conditions noted are these: whole synthesis; for isolated yield: overall.
Series [3] is described as follows: general procedure: Fmoc solid-phase peptide synthesis; 2-Chlorotrityl chloride resin; HBTU/DIPEA; PyBOP/DIPEA for cyclization. As to conditions: whole synthesis, scale 200 μmol.
[4] abbreviates: whole synthesis, scale of the general procedure 25-200 μmol.

Turning to NHS-PEG8-GG-Nle-c(DHfRWK), in series [1] (conjugation step), the conjugation yield came out at 42% and the “final purity (method not given)” value is reported as over 90%.

As to SiFAlin-APG-PEG1-c(RGDfK), in series [1] (conjugation step), the conjugation yield is recorded as 60% and the “final purity (method not given)” value is given as over 96%.

In series [2] (scale 25 μmol), GG-Nle-c(DHfRWK) had an isolated yield of 42% and an isolated mass of 11.5 mg. Further, the “final purity (method not given)” value in series [1] (setting [4]) is over 99%.

For “SiFAlin-APG-PEG3-c(RGDfK)/GG-Nle-c(DHfRWK)”, in series [1] (conjugation step), the conjugation yield worked out at 66% and the “final purity (method not given)” value is listed as over 99%.

On to SiFAlin-APG-PEG3-c(RGDfK), for which, in series [1] (conjugation step), the conjugation yield is given as 67% and the “final purity (method not given)” value is reported as over 96%.

Turning to HO-DIG-c(RGDfK), in series [1] (conjugation step), the conjugation yield is given as 37% and the “final purity (method not given)” value is reported as over 99%.

In the case of SiFAlin-APG-DIG-c(RGDfK), in series [1] (conjugation step), the conjugation yield worked out at 46% and the “final purity (method not given)” value was over 97%.

Take NHS-PEG8-c(RGDfK): in series [1] (conjugation step), the conjugation yield came out at 32% and the “final purity (method not given)” value is over 82%.

Consider “SiFAlin-APG-PEG1-c(RGDfK)/GG-Nle-c(DHfRWK)”, for which, in series [1] (conjugation step), the conjugation yield worked out at 77% and the “final purity (method not given)” value is reported as over 99%.

Consider SiFAlin-APG-PEG5-c(RGDfK), for which, in series [1] (conjugation step), the conjugation yield came out at 41% and the “final purity (method not given)” value was over 99%.

In the case of NHS-PEG3-c(RGDfK), in series [1] (conjugation step), the conjugation yield is recorded as 29% and the “final purity (method not given)” value is listed as over 89%.

Consider NHS-PEG3-GG-Nle-c(DHfRWK), for which, in series [1] (conjugation step), the conjugation yield is listed as 49% and the “final purity (method not given)” value is over 91%.

Take NHS-PEG5-c(RGDfK): in series [1] (conjugation step), the conjugation yield was 35% and the “final purity (method not given)” value is on record as over 91%.

In the case of HO-Ox-EGEGE-GG-Nle-c(DHfRWK), in series [1] (conjugation step), the conjugation yield was found to be 44% and the “final purity (method not given)” value is over 99%.

In the case of c(RGDfK)-EGEGE, the “final purity (method not given)” value in series [1] (setting [4]) is over 99%. Moreover, in series [3] (overall), the isolated yield amounted to 41%. In addition, in series [3], the isolated mass was 90.4 mg.

For SiFAlin-APG-Ox-EGEGE-c(RGDfK), in series [1] (conjugation step), the conjugation yield turned out to be 58% and the “final purity (method not given)” value was over 98%.

With HO-Ox-EGEGE-c(RGDfK), in series [1] (conjugation step), the conjugation yield came to 40% and the “final purity (method not given)” value was over 99%.

For NHS-PEG1-c(RGDfK), in series [1] (conjugation step), the conjugation yield is 41% and the “final purity (method not given)” value was over 93%.

As for “SiFAlin-APG-PEG5-c(RGDfK)/GG-Nle-c(DHfRWK)”, in series [1] (conjugation step), the conjugation yield stood at 49% and the “final purity (method not given)” value was over 99%.

As for “SiFAlin-APG-PEG8-c(RGDfK)/GG-Nle-c(DHfRWK)”, in series [1] (conjugation step), the conjugation yield is given as 58% and the “final purity (method not given)” value was over 99%.

Consider HO-DIG-GG-Nle-c(DHfRWK), for which, in series [1] (conjugation step), the conjugation yield is given as 61% and the “final purity (method not given)” value is over 99%.

With NHS-PEG5-GG-Nle-c(DHfRWK), in series [1] (conjugation step), the conjugation yield is on record as 42% and the “final purity (method not given)” value is over 90%.

In series [2] (scale 125 μmol), EGEGE-GG-Nle-c(DHfRWK) registered an isolated yield of 43% and an isolated mass of 85.2 mg. In addition, the “final purity (method not given)” value in series [1] (setting [4]) was over 88%.

Regarding NHS-PEG1-GG-Nle-c(DHfRWK), in series [1] (conjugation step), the conjugation yield came to 43% and the “final purity (method not given)” value was over 93%.

With SiFAlin-APG-PEG8-c(RGDfK), in series [1] (conjugation step), the conjugation yield came out at 49% and the “final purity (method not given)” value is listed as over 99%.

The values above are taken from publication PMC8228600 (Pharmaceuticals, 2021).
